Here are results for one molecule from patent publication US20110065102A1.

Chains of the proteins cited; added tags and fusions are not shown.
UniProt P07437: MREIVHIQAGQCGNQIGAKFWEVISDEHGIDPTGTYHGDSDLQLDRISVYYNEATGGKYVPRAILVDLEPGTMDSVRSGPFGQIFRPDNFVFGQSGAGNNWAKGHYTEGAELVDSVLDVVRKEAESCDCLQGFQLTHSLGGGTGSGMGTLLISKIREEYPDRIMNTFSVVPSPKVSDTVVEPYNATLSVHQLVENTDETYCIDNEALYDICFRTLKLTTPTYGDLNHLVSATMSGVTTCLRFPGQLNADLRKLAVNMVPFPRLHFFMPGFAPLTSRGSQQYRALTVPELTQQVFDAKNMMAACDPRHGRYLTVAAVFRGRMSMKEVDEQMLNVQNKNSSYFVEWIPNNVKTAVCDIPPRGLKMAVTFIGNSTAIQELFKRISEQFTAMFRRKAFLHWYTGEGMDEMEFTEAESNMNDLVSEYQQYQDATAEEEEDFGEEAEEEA

These are yes or no findings as the source states them, for the method shown. Binding seen in cells or lysates may run through a third protein. A yes stands for co-enrichment or nearness to the bait. Other partners may have been found. Where a sequence is shown, tags or fusion partners need not be part of it.

For this assay, the target named is β-tubulin (endogenous, co-precipitated from HCS-2/8 or HEK293 cell lysates) (UniProt P07437). Put plainly: pull-down with S-protein agarose from transfected cell lysates, SDS-PAGE, MALDI/TOF mass spectrometry.

B1: amino-terminal S-tagged DIVA (Dual Intracellular Von Willebrand factor domain A) expressed from pTriEx4 in HCS-2/8 or HEK293 cells (protein, not shown: small tags and cut ends)
chain: MGLALKFILDHHFQEASGSRASQEVPQIAVVISSGPVEDHVHGPAKALRKAGILLYAIGVRDAVWAELREIASSPQENFTSFVPNFSGLSNLAQKLRQELCDTLAKAAPHVDHVSPACREAALADIVFLVDSSTSIGPQNFQKVKNFLYSVILGLDISSDRVRVGLAQYNDNIYPAFQLNQHPLKSMILEQIQNLPYRTGGTNTGSALEFIRTNYLTEESGSRAKDRVPQIVILVTDGESNDEVQEVADRLKEDGVVVLCGRGQCPGCPRVAKNNQ
B1: the binding result was “binds”.
